Reference: PubChem BioAssay AID248 (DTP/NCI, 2004)
The list shows only some results of the screen, not a fair sample: it is rich in T/C values a quarter to a half above the control, in often repeated tests (any T/C) and in doses without a T/C. Other doses and runs of a compound stand elsewhere. T/C gives the treated animals as a percentage of the vehicle group. Some doses have a count of surviving animals in place of a T/C: the source files T/C as zero there, which appears to mark a toxic dose or a test without result, not a measured value. Some survivor counts are full or nearly so, which does not show that the dose was tolerated: the source hardly ever lists a survival T/C far under the control, and the zero likely stands for such cases as well. Survivors were counted at the toxicity check, usually on the fifth day, unless a day is given; later deaths do not show. Schedules are NCI's codes, read here as Q, the interval in days (D) or hours (H), X, the number of doses. Some schedule codes hold Z or #, which are not explained here. Some molecules as drawn cover several salts, stereoisomers or complexes of the source; a dose is that of the sample tested. Where survival is the endpoint, this PubChem deposit counts one and a half times the control or more as active, and values a quarter to a half above the control carry no call in these data; other NCI protocols may use other cut-offs. Some T/C values are followed by the survivors on the day toxicity was checked, most often the fifth; where none is given, no animal had died by that day. Some entries were tested several times; the values are given in rising order.

System: L1210 leukemia ip in BDF1 mice, survival T/C
Test: NCI In Vivo Anticancer Drug Screen. Data for tumor model L1210 Leukemia (intraperitoneal) in B6D2F1 (BDF1) mice
Conditions: T/C endpoint: mean survival time, higher T/C = longer survival
[1] = dose: 300.0 mg/kg/injection, schedule: Q01DX001 (ip), vehicle: carboxymethylcellulose (CMC)
[2] = dose: 200.0 mg/kg/injection, schedule: Q01DX009 (ip), vehicle: saline with Tween-80
[3] = dose: 400.0 mg/kg/injection, schedule: Q01DX001 (ip), vehicle: saline
[4] = dose: 400.0 mg/kg/injection, schedule: Q04DX002 (ip), vehicle: saline with Tween-80
[5] = dose: 400.0 mg/kg/injection, schedule: Q04DX003 (ip), vehicle: Klucel (hydroxypropylcellulose) (HPC)
[6] = dose: 400.0 mg/kg/injection, schedule: Q01DX009 (ip), vehicle: saline
[7] = dose: 400.0 mg/kg/injection, schedule: Q04DX003 (ip), vehicle: saline

## CN1CCC(=C(C#N)c2ccccc2)CC1
dose: 100.0 mg/kg/injection, schedule: Q04DX003 (ip), vehicle: saline
  survivor count: 0 of 6

## CC1=C(C#N)C2(CCN(C)CC2)C(C#N)=C(C)N1
dose: 150.0 mg/kg/injection, schedule: Q01DX001 (ip), vehicle: saline
  survivor count: 0 of 6
[1]
  survivor count: 1 of 6
dose: 300.0 mg/kg/injection, schedule: Q01DX001 (ip), vehicle: saline
  survivor count: 0 of 6

## CN(CCCCN(C)P(=O)(N1CC1)N1CC1)P(=O)(N1CC1)N1CC1
dose: 200.0 mg/kg/injection, schedule: Q01DX001 (ip), vehicle: carboxymethylcellulose (CMC)
  survivor count: 0 of 6
dose: 400.0 mg/kg/injection, schedule: Q01DX001 (ip), vehicle: carboxymethylcellulose (CMC)
  survivor count: 0 of 6

## CC1(C)N=C(N)N=C(N)N1c1cccc(CC(=O)Nc2ccc(S(=O)(=O)F)cc2)c1
dose: 100.0 mg/kg/injection, schedule: Q01DX009 (ip), vehicle: saline with Tween-80
  T/C: 128 % of control
[2]
  T/C: 140 and 141 % of control [5 of 6 alive]
dose: 400.0 mg/kg/injection, schedule: Q01DX009 (ip), vehicle: saline with Tween-80
  survivor count: 4 of 6
dose: 500.0 mg/kg/injection, schedule: Q01DX009 (ip), vehicle: saline
  survivor count: 0 of 6

## CCc1cccc(CC)c1NC(=O)Nc1ccc(Br)cc1
[3]
  survivor count: 6 of 6

## CN(CCNC(=O)c1ccccc1C(=O)O)c1ccccc1
[4]
  survivor count: 3 of 3

## Cc1nc(N)ncc1CCC1OCCO1
dose: 200.0 mg/kg/injection, schedule: Q04DX002 (ip), vehicle: Klucel (hydroxypropylcellulose) (HPC)
  survivor count: 3 of 3
dose: 400.0 mg/kg/injection, schedule: Q04DX002 (ip), vehicle: Klucel (hydroxypropylcellulose) (HPC)
  survivor count: 0 of 3

## CC(C)(C)NCC(CN(CC(CNC(C)(C)C)C(=O)c1ccccc1)C(C)(C)C)C(=O)c1ccccc1 (centres undefined)
dose: 200.0 mg/kg/injection, schedule: Q04DX003 (ip), vehicle: Klucel (hydroxypropylcellulose) (HPC)
  survivor count: 0 of 6
[5]
  survivor count: 0 of 6

## NC(N)=N/N=C/C(F)(F)F
dose: 600.0 mg/kg/injection, schedule: Q01DX Z (ip), vehicle: methylcellulose (MC)
  survivor count: 2 of 6

## Cc1c(Cl)cccc1NC(=O)NCCC(C)C
[2]
  survivor count: 6 of 6

## C1=C2CN3CCC45c6ccccc6N6CCC(OC1)C(C2CC34)C65 (centres undefined)
dose: 2.5 mg/kg/injection, schedule: Q01DX001 (ip), vehicle: other
  survivor count: 3 of 6
dose: 5.0 mg/kg/injection, schedule: Q01DX001 (ip), vehicle: other
  survivor count: 0 of 6

## BrCC1OCCCO1
dose: 50.0 mg/kg/injection, schedule: Q01DX009 (ip), vehicle: saline with Tween-80
  T/C: 130 % of control
dose: 200.0 mg/kg/injection, schedule: Q04DX002 (ip), vehicle: saline with Tween-80
  survivor count: 0 of 3
[4]
  survivor count: 0 of 3

## O=C(C=P(c1ccccc1)(c1ccccc1)c1ccccc1)CCl
dose: 50.0 mg/kg/injection, schedule: Q01DX001 (ip), vehicle: Klucel (hydroxypropylcellulose) (HPC)
  survivor count: 3 of 6
dose: 100.0 mg/kg/injection, schedule: Q01DX001 (ip), vehicle: Klucel (hydroxypropylcellulose) (HPC)
  survivor count: 0 of 6
dose: 200.0 mg/kg/injection, schedule: Q01DX001 (ip), vehicle: Klucel (hydroxypropylcellulose) (HPC)
  survivor count: 0 of 6
dose: 400.0 mg/kg/injection, schedule: Q01DX001 (ip), vehicle: Klucel (hydroxypropylcellulose) (HPC)
  survivor count: 0 of 6

## NNc1cc(S(=O)(=O)O)cc(C(=O)O)c1O
[6]
  survivor count: 5 of 6

## CCC[CH2][Ge]([Cl])([Cl])[CH2]CCC
dose: 100.0 mg/kg/injection, schedule: Q01DX009 (ip), vehicle: Klucel (hydroxypropylcellulose) (HPC)
  survivor count: 3 of 6

## CCOC(CCC#N)c1ccc(C)cc1 (centres undefined)
dose: 470.0 mg/kg/injection, schedule: Q01DX009 (ip), vehicle: saline with Tween-80
  survivor count: 5 of 6

## O=C(Cl)C1C2C=CC(C2)C1C(=O)Cl (centres undefined)
dose: 200.0 mg/kg/injection, schedule: Q01DX001 (ip), vehicle: saline
  survivor count: 0 of 4
[3]
  survivor count: 0 of 4

## CCOC(=O)C(C(=N)C#N)C(C)=O (centres undefined)
dose: 25.0 mg/kg/injection, schedule: Q04DX003 (ip), vehicle: saline with Tween-80
  survivor count: 6 of 6
dose: 100.0 mg/kg/injection, schedule: Q04DX003 (ip), vehicle: saline with Tween-80
  survivor count: 6 of 6
dose: 200.0 mg/kg/injection, schedule: Q04DX003 (ip), vehicle: saline with Tween-80
  survivor count: 4 of 6
dose: 400.0 mg/kg/injection, schedule: Q04DX003 (ip), vehicle: saline with Tween-80
  survivor count: 0 of 6

## Cc1ccc(NC(=O)N(CCCl)N=O)c(NC(=O)N(CCCl)N=O)c1
dose: 50.0 mg/kg/injection, schedule: Q01DX001 (ip), vehicle: carboxymethylcellulose (CMC), evaluated on day 30
  T/C: 137 % of control
dose: 50.0 mg/kg/injection, schedule: Q01DX001 (ip), vehicle: carboxymethylcellulose (CMC), run until all animals had died
  T/C: 135 % of control
dose: 75.0 mg/kg/injection, schedule: Q01DX001 (ip), vehicle: carboxymethylcellulose (CMC)
  T/C: 127 and 141 % of control
dose: 75.0 mg/kg/injection, schedule: Q01DX009 (ip), vehicle: carboxymethylcellulose (CMC)
  survivor count: 6 of 6
dose: 112.5 mg/kg/injection, schedule: Q01DX009 (ip), vehicle: carboxymethylcellulose (CMC)
  survivor count: 3 of 6
dose: 150.0 mg/kg/injection, schedule: Q01DX001 (ip), vehicle: carboxymethylcellulose (CMC)
  T/C: 129 % of control
[1]
  survivor count: 5 of 6

## CC(=O)NCS(=O)(=O)O
[6]
  survivor count: 6 of 6

## Cc1cc(C)c2cc3cccc[n+]3cc2c1
dose: 8.0 mg/kg/injection, schedule: Q01DX015 (ip), vehicle: saline
  survivor count: 4 of 6
dose: 16.0 mg/kg/injection, schedule: Q01DX015 (ip), vehicle: saline
  survivor count: 0 of 6
dose: 32.0 mg/kg/injection, schedule: Q01DX001 (ip), vehicle: carboxymethylcellulose (CMC)
  survivor count: 3 of 6

## O=C(O)c1ccc2c(c1)Sc1ccccc1N2
[5]
  survivor count: 2 of 6

## CS(=O)(=O)c1nnc(-c2ccc(Cl)c(Cl)c2)s1
dose: 300.0 mg/kg/injection, schedule: Q04DX003 (ip), vehicle: saline
  survivor count: 0 of 6

## O=C1OC2CCCCC2OC1=O (centres undefined)
[3]
  survivor count: 0 of 6

## CCCCC(CC)CC1CCCCC1O (centres undefined)
dose: 400.0 mg/kg/injection, schedule: Q01DX009 (ip), vehicle: Klucel (hydroxypropylcellulose) (HPC)
  survivor count: 3 of 6

## NCCCCC(NC(=O)OCc1ccccc1)C(=O)CCl (centres undefined)
dose: 40.0 mg/kg/injection, schedule: Q04DX002 (ip), vehicle: saline
  survivor count: 1 of 3
dose: 100.0 mg/kg/injection, schedule: Q04DX002 (ip), vehicle: saline
  survivor count: 0 of 3
dose: 200.0 mg/kg/injection, schedule: Q04DX002 (ip), vehicle: saline
  survivor count: 0 of 3
dose: 400.0 mg/kg/injection, schedule: Q04DX002 (ip), vehicle: saline
  survivor count: 0 of 3

## Cc1cc([N+](=O)[O-])ccc1NC(=O)C(Br)C(Br)C(=O)O (centres undefined)
dose: 200.0 mg/kg/injection, schedule: Q01DX009 (ip), vehicle: other
  survivor count: 3 of 6
dose: 400.0 mg/kg/injection, schedule: Q01DX009 (ip), vehicle: other
  survivor count: 0 of 6

## Cc1ccc(N=Nc2c(C)nn(C(N)=S)c2C)cc1
dose: 300.0 mg/kg/injection, schedule: Q01DX001 (ip), vehicle: other
  survivor count: 0 of 6

## CCCCCCCCCCCCCCCC[N+]1(Cc2ccccc2)CCOCC1
dose: 200.0 mg/kg/injection, schedule: Q01DX009 (ip), vehicle: Klucel (hydroxypropylcellulose) (HPC)
  survivor count: 3 of 3

## COC(=O)c1cc(N2CC2)nc(Cl)n1
dose: 100.0 mg/kg/injection, schedule: Q01DX Z (ip), vehicle: methylcellulose (MC)
  survivor count: 2 of 6
dose: 200.0 mg/kg/injection, schedule: Q01DX Z (ip), vehicle: methylcellulose (MC)
  survivor count: 2 of 6

## Cn1c(O)c(C=N)c(=O)n(C)c1=O
dose: 200.0 mg/kg/injection, schedule: Q04DX003 (ip), vehicle: saline
  survivor count: 3 of 6
[7]
  survivor count: 0 of 6

## COC(Cl)C(Cl)(Cl)Cl (centres undefined)
[7]
  survivor count: 2 of 6
